Among the data in paper PMC4626798 (Scientific Reports, 2015) are binding values, retold here.

Test [1] addresses T1, 6 × His-Vhs3^PD (S. cerevisiae, UniProt Q08438 288-577).
T1 construct: Vhs3, S. cerevisiae, PPCDC domain (PD), residues 288–577; Expected MW with tag 34.5 kDa; also called PPCDC domain of Vhs3; source: E. coli BL21 (DE3), purified (Ni2+ IMAC); alone from pET28a or co-expressed with Cab3^PD (pETDuet-1); not shown: His6, N-terminal, kept
T1 sequence (looked up): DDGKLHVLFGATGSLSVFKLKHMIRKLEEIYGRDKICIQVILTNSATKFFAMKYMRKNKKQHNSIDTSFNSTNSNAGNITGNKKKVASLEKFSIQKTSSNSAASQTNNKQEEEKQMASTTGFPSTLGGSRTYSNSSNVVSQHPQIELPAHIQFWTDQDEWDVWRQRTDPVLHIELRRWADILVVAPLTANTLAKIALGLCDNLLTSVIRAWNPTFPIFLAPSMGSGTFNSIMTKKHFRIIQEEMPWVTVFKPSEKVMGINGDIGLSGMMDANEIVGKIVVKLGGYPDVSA
Kind of test: co-purification by Ni2+ IMAC after co-expression; untagged Cab3^PD co-expressed in E. coli with 6 × His-tagged Hal3^PD and/or Vhs3^PD (binary and ternary mixtures); Ni2+ IMAC, SDS-PAGE and densitometry.

In test [2] the target is T1, 6 × His-Vhs3^PD. Kind of test: SEC; purified PD proteins and co-purified mixtures on Superose 12, 50 mM phosphate pH 7.0, 150 mM NaCl, 0.4 mL/min; both purified. (Size exclusion chromatography separates by hydrodynamic size, large species first.)
In a further test the target is T2, 6 × His-Ppz1^Cter (S. cerevisiae, UniProt P26570 345-692).
T2 construct: Ser/Thr protein phosphatase Ppz1, S. cerevisiae, carboxyl terminal domain (Ppz1^Cter, Δ1–344), first MCS of pETDuet-1; also called N-terminally 6 × His-tagged version of Ppz1^Cter; source: E. coli BL21 (DE3), co-expressed with Hal3 from pETDuet-1; purified as the complex (Ni2+ IMAC, SEC); not shown: His6, N-terminal, kept
T2 sequence (looked up): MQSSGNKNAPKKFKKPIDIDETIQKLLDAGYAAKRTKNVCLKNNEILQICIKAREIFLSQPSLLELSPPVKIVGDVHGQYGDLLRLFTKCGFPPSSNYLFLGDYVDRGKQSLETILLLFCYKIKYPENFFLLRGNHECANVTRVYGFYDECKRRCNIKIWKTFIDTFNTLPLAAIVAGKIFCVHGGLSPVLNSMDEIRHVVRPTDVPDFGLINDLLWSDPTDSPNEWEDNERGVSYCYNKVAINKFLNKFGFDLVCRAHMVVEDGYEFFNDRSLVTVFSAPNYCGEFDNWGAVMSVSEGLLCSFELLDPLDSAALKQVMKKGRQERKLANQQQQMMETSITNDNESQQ
Kind of test: co-purification by Ni2+ IMAC after co-expression; 6 × His-Ppz1^Cter and untagged Hal3 co-expressed in E. coli from pETDuet-1; His-Trap column, 50 mM Tris-HCl pH 7.5, 300 mM NaCl, washes up to 80 mM imidazole, elution 500 mM imidazole.

These are yes or no findings as the source states them, for the method shown. Some results given as binding are weak or reduced against the parent protein; the word gives no strength. Where a sequence is shown, tags or fusion partners need not be part of it.

B1: Cab3^PD (untagged) (domain or fragment, S. cerevisiae, UniProt P36076 305-508, looked up)
chain: DDKKFHILIGATGSVATIKVPLIIDKLFKIYGPEKISIQLIVTKPAEHFLKGLKMSTHVKIWREEDAWVFDAVNKNDTSLSLNLILHHELRKWADIFLIAPLSANTLAKLANGICNNLLTSVMRDWSPLTPVLIAPAMNTFMYINPMTKKHLTSLVQDYPFIQVLKPVEKVLICGDIGMGGMREWTDIVEIVRRRINEIRKARD
notes: Cab3 (previously Ykl088w), S. cerevisiae, PPCDC domain (PD), residues 305–508; Expected MW 23.3 kDa; could not be made on its own; also called PPCDC domain of Cab3; Ykl088w PD; source: E. coli BL21 (DE3), co-expressed from the second MCS of pETDuet-1 with 6 × His-Hal3^PD and/or 6 × His-Vhs3^PD; co-purified (Ni2+ IMAC)
As to B1, the binding result with 6 × His-Vhs3^PD [1] and with 6 × His-Vhs3^PD [2] was “binds” in each case.

B2: Hal3 (untagged, entire, co-expressed from pETDuet-1) (natural protein, S. cerevisiae, UniProt P36024 1-562, looked up)
chain: MTAVASTSGKQDADHNQSIECPRFSRGQKEILLDHEDAKGKDSIINSPVSGRQSISPTLSNATTTTTKSIMNATGTSGAVVSNTPEPGLKRVPAVTFSDLKQQQKQDSLTQLKNDSERTKSPNSNPAPVSNSIPGNHAVIPNHTNTSRTTQLSGSPLVNEMKDYDPKKKDSALKIVDTMKPDKIMATSTPISRENNKVTAKAPTSITLRKEDAQDQANNVSGQINVRSTPEETPVKQSVIPSIIPKRENSKNLDPRLPQDDGKLHVLFGATGSLSVFKIKPMIKKLEEIYGRDRISIQVILTQSATQFFEQRYTKKIIKSSEKLNKMSQYESTPATPVTPTPGQCNMAQVVELPPHIQLWTDQDEWDAWKQRTDPVLHIELRRWADILVVAPLTANTLSKIALGLCDNLLTSVIRAWNPSYPILLAPSMVSSTFNSMMTKKQLQTIKEEMSWVTVFKPSEKVMDINGDIGLGGMMDWNEIVNKIVMKLGGYPKNNEEEDDDEDEEEDDDEEEDTEDKNENNNDDDDDDDDDDDDDDDDDDDDDDDDEDEDEAETPGIIDKHQ
notes: Hal3 (Sis2), S. cerevisiae, the entire Hal3, second MCS of pETDuet-1; also called Sis2; untagged version of Hal3; source: E. coli BL21 (DE3), co-expressed with 6 × His-Ppz1^Cter from pETDuet-1; purified as the complex (Ni2+ IMAC, SEC)
Regarding B2, the binding entry with 6 × His-Ppz1^Cter is “binds”.
